Experimental data: the supplement of paper PMC10727501
This is one part of the list. This data set is noisy: repeats of one test often differ as much as different tests do.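 Researchers measured free-swimming zebrafish larvae's O-bend response probability to dark flashes (naive: first five; training: remaining flashes of four 60-flash blocks; test: later 60-flash block) and OMR turning toward alternating leftward/rightward LED motion. Six treated larvae were compared to sixty 0.1% DMSO controls, with |SSMD|≥2 marking a hit.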

System: Danio rerio larvae (5 dpf, TLF)
Assay: Prob-Train (SSMD vs DMSO vehicle); higher = higher than vehicle (e.g. higher dark-flash O-bend response probability, or better optomotor performance)
Conditions: 10 µM; pre-incubation: 30-90 min

Structure (SMILES)	Prob-Train
CC(C)(C)NCC(O)c1ccc(O)c(CO)c1.O=S(=O)(O)O (stereo unspecified) [Salbutamol sulfate (Albuterol)]	0.132
O=C1c2c(O)cc(O)cc2O[C@H](c2cc(O)c(O)c(O)c2)[C@H]1O [Dihydromyricetin]	0.377
O=C(c1cncc(Br)c1)N1CCC(N2CCCC2)CC1	-0.195
NS(=O)(=O)C#Cc1ccccc1 [Pifithrin-Î¼]	-0.924
CN(C)C(=O)[C@H](O)[C@H](Cc1ccccc1)NC(=O)c1cc2cc(Cl)ccc2[nH]1	-0.475
Cl.O=C1CC2(CCCC2)CC(=O)N1CCCCN1CCN(c2ncccn2)CC1 [Buspirone HCl]	-1.55
Cc1ccc(C(=O)N(CCCN)[C@@H](c2nc3cc(Cl)ccc3c(=O)n2Cc2ccccc2)C(C)C)cc1	-0.222
NC(=O)[C@@H](CCC(F)(F)F)N(Cc1ccc(-c2ncon2)cc1F)S(=O)(=O)c1ccc(Cl)cc1	-1.79
NC(=O)N1c2ccccc2C=Cc2ccccc21 [Carbamazepine]	-0.0523
O=C(Nc1ccccc1)c1cc([N+](=O)[O-])ccc1Cl	0.104
CC1=C(C(=O)Nc2cc3cn[nH]c3cc2F)C(c2ccc(C(F)(F)F)cc2)CC(=O)N1 (stereo unspecified)	-0.668
CC(C)(C)NS(=O)(=O)c1cncc(-c2cc(F)c3nc(N)nn3c2)c1	0.504
OC[C@@H](O)[C@@H](O)[C@H](O)[C@H](O)CO [D-Mannitol]	-0.277
OCC(O)CN1CCN(c2ccccc2)CC1 (stereo unspecified) [Dropropizine]	-0.0282
O=C1Nc2cc(Br)ccc2/C1=C1/Nc2ccccc2/C1=N/O	-1.2
C#Cc1cccc(Nc2ncnc3cc(OCCOC)c(OCCO)cc23)c1.Cl	-0.299
CN1CCC(OC(c2ccccc2)c2ccccc2)CC1.Cl [Diphenylpyraline HCl]	0.558
Cc1onc(-c2ccccc2)c1C(=O)N[C@@H]1C(=O)N2[C@@H]1SC(C)(C)[C@H]2C(=O)[O-].O.[Na+] [Oxacillin sodium monohydrate]	0.369
c1cn2cc(-c3ccc4cn[nH]c4c3)nc(Nc3ccc(N4CCOCC4)cc3)c2n1	-0.15
COc1cc(C)c(/C=C/C(C)=C/C=C/C(C)=C/C(=O)O)c(C)c1C [Acitretin]	-0.901
C[C@]12C=CC(=O)C=C1CC[C@H]1[C@@H]3C[C@@H](O)[C@@](O)(C(=O)CO)[C@@]3(C)C[C@@H](O)[C@]12F [Triamcinolone]	0.398
CN(C)CCCN1c2ccccc2Sc2ccc(Cl)cc21.Cl [Chlorpromazine HCl]	-1.38
Nc1nc(N)c(N=O)c(OCC2CCCCC2)n1	-0.222
O=C([O-])c1cc(/N=N/c2ccc(O)c(C(=O)[O-])c2)ccc1O.[Na+].[Na+] [Olsalazine Sodium]	-0.344
C#C[C@@]1(O)CC[C@H]2[C@@H]3CCC4=CC(=O)CC[C@@H]4[C@@H]3CC[C@@]21CC [Levonorgestrel]	-0.979
CCCCC1=NC2(CCCC2)C(=O)N1Cc1ccc(-c2ccccc2-c2nn[nH]n2)cc1 [Irbesartan]	0.0233

Another view of 2 compounds above.
Structure (SMILES) | Prob-Train
C#C[C@@]1(O)CC[C@H]2[C@@H]3CCC4=CC(=O)CC[C@@H]4[C@@H]3CC[C@@]21CC [Levonorgestrel] | -0.979
CCCCC1=NC2(CCCC2)C(=O)N1Cc1ccc(-c2ccccc2-c2nn[nH]n2)cc1 [Irbesartan] | 0.0233
